Laboratory results as given in PubChem BioAssay AID2052 (NMMLSC, 2009).
The list shows a part of the results.

Experiment: modulators of CD8 T cell-vesicle binding, primary screen, mouse 2C CD8+ T cells, flow cytometry (AID 2052);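 also: binding gate set so that unloaded-vesicle control wells show 10% double positive cells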
Settings: 2C CD8+ T cell-vesicle binding, measured here: CD8+ vesicle-bound cell fraction, at 7 µM, stronger effect = lower value
In short: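 Material: murine 2C transgenic CD8+ T lymphocytes / Also added: QL9-peptide-loaded Drosophila micro-vesicles bearing Ld, ICAM-1 and B7-1 / Schedule: binding step 1.5 h, 37 °C, antibody labelling 20 min, ice / Signal: flow cytometry, PE anti-B7-1 (FL2) versus Alexa647 anti-CD8 (FL8), PFA-fixed / Evaluation: percent CD8+ FL2 mean versus row control / Benchmarks: naked versus QL9-loaded vesicles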

| Compound | double positive events |
| --- | --- |
| CCOC(=O)c1ccc(NP(C)(=O)Oc2cc(C)cc(C)c2)cc1 (stereo not given) | 20.7% |
| Cc1cc(C)cc(OP(C)(=O)Nc2ccc(C)cc2C)c1 (stereo not given) | 17.1% |
| Cc1cccc(OCC(=O)OC2CN3CCC2CC3)c1 (stereo not given) | 51.6% |
| O=[As](O)(c1cccc(O)c1)c1cccc(O)c1 | 34.6% |
| COc1ccccc1OP(C)(=O)Nc1cccc(Br)c1 (stereo not given) | 57.3% |
| CS(=O)(=O)c1ccc(Cl)c(NC(=O)COC(=O)C(O)(c2ccccc2)c2ccccc2)c1 | 14.1% |
| O=[As](O)(O)c1cccnc1 | 45.2% |
| COc1cc(C(=O)NCC2(N3CCOCC3)CCCCC2)cc(Cl)c1OC(C)C | 43.8% |
| O=C(OC1CN2CCC1CC2)c1ccc(Cl)cc1 (stereo not given) | 59.8% |
| COc1ccc(N/C(=N/P(=O)(N2CCOCC2)N2CCOCC2)N2CCOCC2)cc1 | 14.4% |
| COc1cc(I)ccc1[As](=O)(O)O | 51.8% |
| COc1ccc2nc(NP(=O)(c3ccccc3)c3ccccc3)sc2c1 | 59.5% |
| Cc1cc(=O)[nH]c(N[N+](=O)[O-])n1 | 57.2% |
| CCN(CC)CCCOC(=O)C(O)(c1ccccc1)c1ccccc1 | 30.3% |
| O=C(OC1CN2CCC1CC2)C12CC3CC(CC(C3)C1)C2 (stereo not given) | 41.1% |
| Cc1c2c(nc3ccccc13)SC(C(Cl)Cl)C2 (stereo not given) | 48.8% |
| Cc1cc(C)cc(OP(C)(N)=O)c1 (stereo not given) | 39.9% |
| COc1ccc(OP(C)(=O)Nc2cccc(F)c2)cc1 (stereo not given) | 33.2% |
| O=[N+]([O-])c1cc([N+](=O)[O-])c(-c2ccn[nH]2)s1 | 56.1% |
| CC(C)NC(=O)NP(=O)(Oc1ccccc1)Oc1ccccc1 | 63.8% |

| Compound | double positive events |
| --- | --- |
| COc1ccccc1OP(C)(=O)Nc1cc(Cl)ccc1C (stereo not given) | 66.3% |
| CCN(CC)C(=S)SC(NC=O)C(Cl)(Cl)Cl (stereo not given) | 44.3% |
| Cc1ccc(NP(C)(=O)Oc2ccccc2)c(C)c1 (stereo not given) | 26.9% |
| CC(C)c1ccc(OP(=O)(Nc2ccccn2)Oc2ccccc2F)cc1 (stereo not given) | 48.5% |
| COc1ccccc1OP(C)(=O)Nc1ccc(C)cc1 (stereo not given) | 21.4% |
| ClCCSc1nnc(-c2cccnc2)o1 | 45.8% |
| CCOC(=O)c1ccc(NP(C)(=O)Oc2ccccc2)cc1 (stereo not given) | 5.2% |
| O=[N+]([O-])c1ccc2c(c1)C=Nc1ccccc1O2 | 19.5% |
| Cc1ccc2nc3c(c(C)c2c1)CC(C(Cl)Cl)S3 (stereo not given) | 59.1% |
| Cc1cccc(C)c1OP(C)(N)=O (stereo not given) | 39.1% |
| Cc1ccc(OP(=O)(Nc2ccc([N+](=O)[O-])cn2)Oc2ccc(C)cc2)cc1 | 53.3% |
| CC(C)(C)c1ccc(OP(C)(=O)Nc2ccc(SC(F)(F)F)cc2)cc1 (stereo not given) | 49.5% |
| COc1cc(C(=O)NCC2(N3CCOCC3)CCCCC2)ccc1OCC(C)C | 20.3% |
| C[As](=O)(O)c1cccc(C(=O)O)c1 | 23.8% |
| O=[As](O)(c1ccc(O)cc1)c1ccccc1O | 39.7% |
| O=[N+]([O-])c1cc([N+](=O)[O-])c(Nc2cccnc2)c([N+](=O)[O-])c1 | 20.1% |
| O=[N+]([O-])c1ccc(Nc2ccc(Oc3ccc([N+](=O)[O-])cc3[N+](=O)[O-])cc2)c([N+](=O)[O-])c1 | 17.3% |
| CP(=O)(Nc1ccccc1Br)Oc1ccccc1 (stereo not given) | 53.6% |
| COc1ccccc1OP(C)(=O)Nc1ccccc1 (stereo not given) | 34.9% |
| Cc1cc(SC(NC=O)C(Cl)(Cl)Cl)ncn1 (stereo not given) | 58.4% |

| Compound | double positive events |
| --- | --- |
| O=P(Nc1ccccn1)(c1cccc2ccccc12)c1cccc2ccccc12 | 54.1% |
| CCOC(=O)Nc1cccc([As](=O)(O)O)c1 | 52% |
| CP(=S)(Nn1cnnc1)Oc1ccccc1 (stereo not given) | 48% |
| Cc1cc(SC(NC(=O)c2ccccc2)C(Cl)(Cl)Cl)nc(C(C)C)n1 (stereo not given) | 41.7% |
| CCOC(=O)Nc1ccc([As](=O)(O)O)c(O)c1 | 25.3% |
| CCC(C)N(CC(C)C)C(=S)SC(NC(C)=O)C(Cl)(Cl)Cl (stereo not given) | 5.5% |
| O=[N+]([O-])c1cc([N+](=O)[O-])c(O)c([N+](=O)[O-])c1.c1ccc(Oc2ccncc2)cc1 | 55.5% |
| CCOC(=O)c1ccc(NP(C)(=O)Oc2ccc(OC)cc2)cc1 (stereo not given) | 42.7% |
| CCOC(=O)c1ccc(NC(=O)C(C)(CCl)SC)cc1 (stereo not given) | 27.9% |
| O=C(OC1CN2CCC1CC2)c1cccc([N+](=O)[O-])c1 (stereo not given) | 18.2% |
| CCOP(C)(=S)SCC(=O)NC(C)C(=O)O (stereo not given) | 29.9% |
| O=C(Nc1ccncc1[N+](=O)[O-])c1ccc([N+](=O)[O-])cc1[N+](=O)[O-] | 14% |
| Cc1cc(C)cc(OP(C)(=O)Nc2ccc(SC(F)(F)F)cc2)c1 (stereo not given) | 54.8% |
| CP(=O)(NC(=O)Nc1ccccc1)Oc1ccccc1 (stereo not given) | 27.5% |
| O=C(COc1ccccc1)OC1CN2CCC1CC2 (stereo not given) | 26.1% |
| CCc1ccc(OP(C)(=O)N2CCN(c3ccc([N+](=O)[O-])cc3)CC2)cc1 (stereo not given) | 22% |
| CP(=O)(Oc1ccccc1)OC(c1ccccc1)C(F)(F)F (stereo not given) | 27.1% |
| COP1(=S)c2c(C)nn(CCC#N)c2N=C(c2ccc(F)cc2)N1C (stereo not given) | 8.2% |
| CP(=O)(Nc1ccc(SC(F)(F)F)cc1)Oc1ccc(Cl)cc1 (stereo not given) | 43.9% |
| Cc1cccc(C)c1OP(C)(=O)Nc1ccc(SC(F)(F)F)cc1 (stereo not given) | 33.5% |
